This passage reports binding results from paper PMC4583408.

By UniProt entry, the sequences of proteins in these tests, tags left out. Where a name states a change or a piece, a line headed by the entry shows the natural chain unless it says otherwise.
UniProt Q9VEZ3: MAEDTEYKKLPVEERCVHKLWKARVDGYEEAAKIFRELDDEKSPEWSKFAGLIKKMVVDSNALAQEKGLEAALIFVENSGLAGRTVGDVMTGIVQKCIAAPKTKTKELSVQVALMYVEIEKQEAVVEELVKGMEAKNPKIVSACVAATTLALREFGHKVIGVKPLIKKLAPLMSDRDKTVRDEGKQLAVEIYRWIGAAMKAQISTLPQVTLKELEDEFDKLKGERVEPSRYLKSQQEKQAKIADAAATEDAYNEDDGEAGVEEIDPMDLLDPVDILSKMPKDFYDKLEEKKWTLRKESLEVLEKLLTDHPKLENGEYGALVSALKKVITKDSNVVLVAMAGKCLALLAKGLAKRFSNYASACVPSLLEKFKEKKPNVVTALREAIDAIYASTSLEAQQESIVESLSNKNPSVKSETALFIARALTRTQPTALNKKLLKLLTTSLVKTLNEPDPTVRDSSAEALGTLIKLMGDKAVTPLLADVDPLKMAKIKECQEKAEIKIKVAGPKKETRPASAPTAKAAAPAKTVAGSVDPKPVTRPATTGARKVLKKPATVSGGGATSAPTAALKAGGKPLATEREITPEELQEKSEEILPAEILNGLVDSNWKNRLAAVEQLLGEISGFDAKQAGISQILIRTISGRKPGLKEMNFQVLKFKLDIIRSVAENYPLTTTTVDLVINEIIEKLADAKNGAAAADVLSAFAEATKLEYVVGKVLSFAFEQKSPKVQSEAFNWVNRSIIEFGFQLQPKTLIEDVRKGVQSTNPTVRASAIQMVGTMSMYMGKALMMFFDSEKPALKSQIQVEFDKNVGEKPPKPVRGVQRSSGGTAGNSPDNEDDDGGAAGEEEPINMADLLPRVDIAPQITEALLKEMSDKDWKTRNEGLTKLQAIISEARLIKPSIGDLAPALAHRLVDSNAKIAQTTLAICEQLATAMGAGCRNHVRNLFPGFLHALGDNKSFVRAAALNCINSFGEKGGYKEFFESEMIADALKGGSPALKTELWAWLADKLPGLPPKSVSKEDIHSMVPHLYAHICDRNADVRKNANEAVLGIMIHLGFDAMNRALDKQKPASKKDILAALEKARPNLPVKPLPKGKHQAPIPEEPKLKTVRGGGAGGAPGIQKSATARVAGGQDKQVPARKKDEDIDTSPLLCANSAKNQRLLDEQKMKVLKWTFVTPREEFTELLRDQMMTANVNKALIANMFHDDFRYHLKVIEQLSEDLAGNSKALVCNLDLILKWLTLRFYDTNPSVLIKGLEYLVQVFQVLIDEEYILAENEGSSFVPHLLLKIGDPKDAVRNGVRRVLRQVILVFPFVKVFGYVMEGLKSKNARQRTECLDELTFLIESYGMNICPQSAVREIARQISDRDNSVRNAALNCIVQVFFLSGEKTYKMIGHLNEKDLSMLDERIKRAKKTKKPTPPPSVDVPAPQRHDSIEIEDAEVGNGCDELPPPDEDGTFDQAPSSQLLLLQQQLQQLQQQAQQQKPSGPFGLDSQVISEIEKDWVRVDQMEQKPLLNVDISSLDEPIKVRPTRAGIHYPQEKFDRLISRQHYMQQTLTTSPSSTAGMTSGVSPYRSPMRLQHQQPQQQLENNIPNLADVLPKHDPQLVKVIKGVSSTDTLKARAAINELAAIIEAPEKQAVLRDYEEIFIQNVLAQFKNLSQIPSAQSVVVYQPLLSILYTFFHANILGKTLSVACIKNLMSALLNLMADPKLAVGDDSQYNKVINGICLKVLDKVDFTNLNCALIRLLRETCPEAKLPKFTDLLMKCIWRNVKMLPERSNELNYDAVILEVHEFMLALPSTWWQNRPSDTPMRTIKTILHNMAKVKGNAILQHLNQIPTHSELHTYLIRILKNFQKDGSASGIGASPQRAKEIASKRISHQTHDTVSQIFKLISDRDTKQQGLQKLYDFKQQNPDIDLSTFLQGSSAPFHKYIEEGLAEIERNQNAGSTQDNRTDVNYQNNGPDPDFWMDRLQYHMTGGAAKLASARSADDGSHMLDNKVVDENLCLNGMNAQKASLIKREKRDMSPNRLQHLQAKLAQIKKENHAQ

Results are given in words; binding and its absence hold for the method and conditions named. Binding seen in cells or lysates may run through a third protein. For some assays here: A result given as binding can be weak or reduced; the word gives no strength. For some assays here: Tags and fused reporters may be left off the sequences shown.

The target in assay [1] is T1, Orbit 1071-1492-GFP (Drosophila) (UniProt Q9NBD7).
T1 sequence: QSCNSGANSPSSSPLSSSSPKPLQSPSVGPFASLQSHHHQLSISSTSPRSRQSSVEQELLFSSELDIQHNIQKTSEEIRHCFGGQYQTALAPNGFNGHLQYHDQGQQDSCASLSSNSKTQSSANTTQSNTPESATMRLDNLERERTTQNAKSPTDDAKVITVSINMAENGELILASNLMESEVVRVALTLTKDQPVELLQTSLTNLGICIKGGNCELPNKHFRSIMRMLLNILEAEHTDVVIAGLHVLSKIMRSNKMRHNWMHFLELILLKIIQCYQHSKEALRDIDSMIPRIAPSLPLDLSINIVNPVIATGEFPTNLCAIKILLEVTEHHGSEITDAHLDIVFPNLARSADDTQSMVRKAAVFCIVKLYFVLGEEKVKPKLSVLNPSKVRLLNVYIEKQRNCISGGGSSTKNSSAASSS
The experiment in a line: co-IP; lysate of S2 cells co-expressing mCherry-tagged Msps 1406–1596 (wild type or mutant) and GFP-tagged pieces of the Orbit TOG3-CT fragment.

Assay [2] concerns the target T2, Orbit/MAST, endogenous (Drosophila (endogenous in S2 cells)) (UniProt Q9NBD7).
T2 sequence: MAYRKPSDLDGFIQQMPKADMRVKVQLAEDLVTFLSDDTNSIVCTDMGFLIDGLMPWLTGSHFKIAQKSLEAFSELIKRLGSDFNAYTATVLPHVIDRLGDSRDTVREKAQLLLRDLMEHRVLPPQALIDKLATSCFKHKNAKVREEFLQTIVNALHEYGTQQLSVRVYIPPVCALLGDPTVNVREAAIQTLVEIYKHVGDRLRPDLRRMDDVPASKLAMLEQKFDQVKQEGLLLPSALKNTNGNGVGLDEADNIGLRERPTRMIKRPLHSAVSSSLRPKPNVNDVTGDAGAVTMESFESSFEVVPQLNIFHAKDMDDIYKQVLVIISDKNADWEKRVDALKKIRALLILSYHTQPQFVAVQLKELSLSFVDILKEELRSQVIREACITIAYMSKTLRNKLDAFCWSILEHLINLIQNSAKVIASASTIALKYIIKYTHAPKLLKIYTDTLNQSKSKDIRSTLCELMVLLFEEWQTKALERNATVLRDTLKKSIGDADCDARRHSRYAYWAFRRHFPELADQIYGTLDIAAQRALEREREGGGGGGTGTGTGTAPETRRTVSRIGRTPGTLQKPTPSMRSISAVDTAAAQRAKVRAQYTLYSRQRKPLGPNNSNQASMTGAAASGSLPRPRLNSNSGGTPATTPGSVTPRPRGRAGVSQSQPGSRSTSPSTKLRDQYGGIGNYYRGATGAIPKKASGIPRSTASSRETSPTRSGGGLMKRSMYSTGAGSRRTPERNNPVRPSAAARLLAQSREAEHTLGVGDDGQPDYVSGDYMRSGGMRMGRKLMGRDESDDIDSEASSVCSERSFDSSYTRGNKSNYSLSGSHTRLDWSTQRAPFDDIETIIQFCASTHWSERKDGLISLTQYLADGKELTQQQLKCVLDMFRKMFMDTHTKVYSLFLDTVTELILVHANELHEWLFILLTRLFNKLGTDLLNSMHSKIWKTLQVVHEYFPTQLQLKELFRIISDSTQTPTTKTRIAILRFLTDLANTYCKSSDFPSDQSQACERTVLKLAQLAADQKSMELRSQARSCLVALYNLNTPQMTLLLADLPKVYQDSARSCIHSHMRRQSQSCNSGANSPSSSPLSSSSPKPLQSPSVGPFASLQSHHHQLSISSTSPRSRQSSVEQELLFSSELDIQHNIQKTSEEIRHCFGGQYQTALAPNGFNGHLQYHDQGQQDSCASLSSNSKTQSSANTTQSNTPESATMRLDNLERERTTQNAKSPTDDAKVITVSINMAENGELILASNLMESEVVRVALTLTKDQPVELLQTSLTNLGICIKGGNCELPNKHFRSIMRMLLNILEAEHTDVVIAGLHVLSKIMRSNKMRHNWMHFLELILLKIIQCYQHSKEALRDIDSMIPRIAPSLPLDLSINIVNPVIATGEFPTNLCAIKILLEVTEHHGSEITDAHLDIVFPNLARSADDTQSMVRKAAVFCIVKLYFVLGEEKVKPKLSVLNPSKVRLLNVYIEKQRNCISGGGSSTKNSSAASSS
In words: co-IP; lysate of S2 cells, control or GSK3β-depleted; immunoprecipitation of endogenous Orbit and Sentin, pre-immune serum of the Orbit rabbits as control.

Turning to “mCherry-tagged Msps 1406–1596 3K3A (from UniProt Q9VEZ3) (domain or fragment)”, the binding result in assay [1] is given as “no binding”.

With “Sentin, endogenous (Drosophila (endogenous in S2 cells))”, the binding result in assay [2] is “binds”.
